Substitutions are numbered along the chain they refer to. Construct, isoform or probe ends are uncertain for at least one entry. For part of these data: The comparison behind a weaker result is the experiment's own reference, which may not be listed here. Tags and fusion partners may be left off the protein sequences shown. For part of these data: At least one verdict was read from the data and is not stated in words by the source.
What was measured:
Experiment in all cases: EMSA
[1] = target: T1, Mtr4p wild type (Saccharomyces cerevisiae) (UniProt P47047); conditions: no ATP or Mg2+ listed, 1 mM EDTA; EMSA: 0.5 nM RNA, 10 mM Tris pH 7.5, 1 mM EDTA, 100 mM KCl, 0.1 mM DTT, 5% glycerol, 1% NP40, on ice 30 min; 5% native PAGE at 4 C; recombinant protein; protein details: His (His60 Ni purification); label: 5' 32P on R4 (top strand)
T1 sequence (looked up, limits assumed): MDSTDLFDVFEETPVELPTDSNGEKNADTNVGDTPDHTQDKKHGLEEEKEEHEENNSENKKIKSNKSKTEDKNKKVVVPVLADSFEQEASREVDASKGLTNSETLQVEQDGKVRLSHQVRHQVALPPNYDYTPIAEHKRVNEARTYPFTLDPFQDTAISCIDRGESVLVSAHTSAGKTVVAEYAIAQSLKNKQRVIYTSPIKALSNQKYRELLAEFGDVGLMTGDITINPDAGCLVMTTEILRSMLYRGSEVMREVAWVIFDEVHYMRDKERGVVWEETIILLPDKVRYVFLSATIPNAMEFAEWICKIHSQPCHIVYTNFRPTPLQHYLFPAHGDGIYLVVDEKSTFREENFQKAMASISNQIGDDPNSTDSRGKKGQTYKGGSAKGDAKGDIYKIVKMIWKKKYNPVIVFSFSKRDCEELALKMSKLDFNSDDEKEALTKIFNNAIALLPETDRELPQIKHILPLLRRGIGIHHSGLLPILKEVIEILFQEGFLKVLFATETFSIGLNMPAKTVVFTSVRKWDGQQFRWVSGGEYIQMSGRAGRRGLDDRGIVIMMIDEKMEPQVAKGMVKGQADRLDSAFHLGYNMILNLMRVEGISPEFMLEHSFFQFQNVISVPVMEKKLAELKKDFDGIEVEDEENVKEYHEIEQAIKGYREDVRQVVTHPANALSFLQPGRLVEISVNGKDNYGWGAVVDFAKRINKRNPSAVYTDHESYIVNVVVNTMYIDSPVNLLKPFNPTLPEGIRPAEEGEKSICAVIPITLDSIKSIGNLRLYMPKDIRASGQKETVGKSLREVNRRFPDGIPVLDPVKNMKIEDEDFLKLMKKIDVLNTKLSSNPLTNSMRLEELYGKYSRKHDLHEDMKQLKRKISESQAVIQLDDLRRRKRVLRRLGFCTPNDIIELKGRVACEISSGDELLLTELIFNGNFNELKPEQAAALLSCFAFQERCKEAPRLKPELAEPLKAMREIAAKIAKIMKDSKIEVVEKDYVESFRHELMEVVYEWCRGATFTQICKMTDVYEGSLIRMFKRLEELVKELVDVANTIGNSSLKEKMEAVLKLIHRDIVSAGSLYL

[2] = target: T2, Mtr4p-K904N (Saccharomyces cerevisiae) (UniProt P47047); conditions: no ATP or Mg2+ listed, 1 mM EDTA, complex reduced with smearing, free RNA similar to wild type; EMSA: 0.5 nM RNA, 10 mM Tris pH 7.5, 1 mM EDTA, 100 mM KCl, 0.1 mM DTT, 5% glycerol, 1% NP40, on ice 30 min; 5% native PAGE at 4 C; recombinant protein; protein details: His (His60 Ni purification); label: 5' 32P on R4 (top strand)
T2 sequence (looked up, limits assumed): T1 sequence (looked up, limits assumed) with K904N

[3] = target: T3, Mtr4p-R1030G (Saccharomyces cerevisiae) (UniProt P47047); conditions: no ATP or Mg2+ listed, 1 mM EDTA; EMSA: 0.5 nM RNA, 10 mM Tris pH 7.5, 1 mM EDTA, 100 mM KCl, 0.1 mM DTT, 5% glycerol, 1% NP40, on ice 30 min; 5% native PAGE at 4 C; recombinant protein; protein details: His (His60 Ni purification); label: 5' 32P on R4 (top strand)
T3 sequence (looked up, limits assumed): T1 sequence (looked up, limits assumed) with R1030G

AGCACCGUAAAGACGC / GCGUCUUUACGGUGCUAGCUUA [R1-4 RNA duplex (R4 top / R1 bottom)]
binding result [1]: binds
binding result [2]: binds more weakly
binding result [3]: binds more weakly

— PMC4731217, “Mutations in Mtr4 Structural Domains Reveal Their Important Role in Regulating tRNAiMet Turnover in Saccharomyces cerevisiae and Mtr4p Enzymatic Activities In Vitro”
